PubChem BioAssay AID686943, Drosophila RNAi Screening Center, 2013
Aim: 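Knockdowns that increase or decrease active ERK after insulin receptor stimulation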 (primary screen). System: Drosophila S2R+ haemocyte-like cells expressing YFP-tagged ERK (Rolled). Knock-down reagent: long dsRNA against Drosophila genes. Challenge: insulin stimulation versus unstimulated cells; dose and duration not given. Detection: 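Antibody staining for doubly phosphorylated ERK divided by ERK-YFP signal, as plate z-scores, in insulin-treated and untreated cells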. Scale: replicate 1, z-score of dpERK with insulin and replicate 2, z-score of dpERK with insulin: higher = more active ERK per ERK-YFP after insulin.
The screen tested about 23,000 reagents; below is an unselected part of those with a known target gene and a result. 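Extra replicates exist only for a retested subset of genes; insulin dose and duration not given; both raised and lowered dpERK matter.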 Reagents against one gene are numbered here. Not all columns of the deposit are shown. No sequences are given here. The record does not give: the amount of reagent, the time to read-out.

no.	predicted target	dsRNA no.	replicate 1, z-score of dpERK with insulin	replicate 2, z-score of dpERK with insulin
1	CheB38b	1	-0.2	0.68
2	CG13748	1	-0.26	0.08
3	Sld5	1	-0.6	0
4	CkIIalpha-i1	1	0.84	0.54
5	O-fut1	1	0.02	0.3
6	ato	1	-1.05	-0.71
7	CG5177	1	-0.49	0.41
8	CG14221	1	0.25	0.57
9	lncRNA:CR40629	1	-1	-0.02
10	CG7912	1	7.13	0.84
11	INPP5E	1	0.95	0.37
12	CG32694	1	-0.22	-0.05
13	CG32694	2	-1.04	0.13
14	CG32694	3	-0.93	0.5
15	east	1	-3.25	-3.2
16	CG13218	1	0.23	0.35
17	CG34181	1	-0.26	0.72
18	Lhr	1	1.56	0.3
19	JMJD7	1	0.89	0.92
20	CG4793	1	0.68	0.12
21	yip7	1	0.75	0.3
22	p47	1	-0.66	-0.39
23	CG15536	1	0.08	1.73
24	CG15536	2	0.32	-0.14
25	CG12439	1	0.6	0.06
26	CG17475	1	-0.22	0.16
27	Cpr49Ae	1	-0.17	-0.23
28	Ir75b	1	-0.02	-0.12
29	CG30098	1	-0.01	-0.36
30	asf1	1	-2.97	-1.34
31	dpr4	1	0.1	-0.21
32	dpr4	2	1.2	1.05
33	CG31445	1	0.34	0.7
34	CG15286	1	0.15	0.02
35	Oseg5	1	0.65	-0.1
36	ND-ACP	1	1.48	0.13
37	f-cup	1	0.26	0.21
38	HERC2	1	0.75	0.76
39	Jon99Cii	1	1.81	-0.08
40	Jon99Cii	2	-0.12	0.17
41	bmm	1	0.14	0.71
42	RpL29	1	-1.02	-0.49
43	CG14285	1	-0.01	0.22
44	CG12155	1	-4.56	-4.19
45	Ranbp16	1	-1.21	-0.11
46	CG13994	1	0.09	0.28
47	CG13039	1	0.17	-0.83
48	CG7271	1	-0.74	1.41
49	CG13245	1	0.3	-0.04
50	SA2	1	-0.39	-0.31
51	Rbpn-5	1	0.84	0.16
52	CG9701	1	-0.09	0.58
53	ftz-f1	1	-1.84	-1.09
54	Cpr47Ed	1	-0.42	0.33
55	CG7300	1	0.44	0.85
56	eIF1	1	0.77	0.86
57	SP1173	1	0.33	1.07

5 neighbouring reagents from above, for reference:
no.	predicted target	dsRNA no.	replicate 1, z-score of dpERK with insulin	replicate 2, z-score of dpERK with insulin
44	CG12155	1	-4.56	-4.19
45	Ranbp16	1	-1.21	-0.11
46	CG13994	1	0.09	0.28
47	CG13039	1	0.17	-0.83
48	CG7271	1	-0.74	1.41
